Laboratory results taken from patent publication US6066642A, “Dihydropyridine-, pyridine-, benzopyran-4-one- and triazoloquinazoline derivative, their preparation and their use as adenosine receptor antagonists” (priority 1998, dated 2000).
For at least one compound, name, drawing or mass did not settle the structure. Some entries repeat one wording, which the source may state once for all of them.

Target: T1, A1 receptors (Rattus norvegicus, UniProt P25099)
T1 sequence (P25099 1-326): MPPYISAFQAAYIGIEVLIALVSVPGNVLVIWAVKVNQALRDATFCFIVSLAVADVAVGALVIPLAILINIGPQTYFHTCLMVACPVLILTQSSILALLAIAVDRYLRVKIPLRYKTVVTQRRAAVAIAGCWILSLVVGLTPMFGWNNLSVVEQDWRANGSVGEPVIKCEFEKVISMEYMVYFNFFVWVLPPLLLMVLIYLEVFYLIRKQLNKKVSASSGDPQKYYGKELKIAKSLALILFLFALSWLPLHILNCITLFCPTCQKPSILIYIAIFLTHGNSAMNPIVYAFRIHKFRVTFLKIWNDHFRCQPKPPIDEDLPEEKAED
Assay type: binding
Settings: selectivity in words

SMILES: CCOC(=O)C1=C(C)NC(C)=C(C(=O)OC)C1c1cccc([N+](=O)[O-])c1 (racemic) [Compound 61, 3-methyl-5-ethyl-2,6-dimethyl-4-(3-nitrophenyl)-1,4(R,S)-dihydropyridine-3,5-dicarboxylate, reference compound]
- greater affinity to A1 than A2a adenosine receptors: greater affinity to A1 adenosine receptors than A2a receptors
